# Test results published in the supplement of paper PMC10849652.
# Chains of the proteins cited; added tags and fusions are not shown. Lines headed by an entry give the natural chain unless they say otherwise; changes in a name come on top.
# UniProt Q9BW91: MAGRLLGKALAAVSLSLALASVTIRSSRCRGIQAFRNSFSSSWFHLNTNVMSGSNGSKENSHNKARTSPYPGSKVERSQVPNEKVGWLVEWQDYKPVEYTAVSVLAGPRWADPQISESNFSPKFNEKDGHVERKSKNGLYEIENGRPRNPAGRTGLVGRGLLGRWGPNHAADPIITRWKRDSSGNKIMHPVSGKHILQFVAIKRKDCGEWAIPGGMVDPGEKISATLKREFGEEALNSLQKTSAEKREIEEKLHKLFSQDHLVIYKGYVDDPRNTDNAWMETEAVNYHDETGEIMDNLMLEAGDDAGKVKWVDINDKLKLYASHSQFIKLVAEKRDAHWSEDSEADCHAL
# UniProt Q15233: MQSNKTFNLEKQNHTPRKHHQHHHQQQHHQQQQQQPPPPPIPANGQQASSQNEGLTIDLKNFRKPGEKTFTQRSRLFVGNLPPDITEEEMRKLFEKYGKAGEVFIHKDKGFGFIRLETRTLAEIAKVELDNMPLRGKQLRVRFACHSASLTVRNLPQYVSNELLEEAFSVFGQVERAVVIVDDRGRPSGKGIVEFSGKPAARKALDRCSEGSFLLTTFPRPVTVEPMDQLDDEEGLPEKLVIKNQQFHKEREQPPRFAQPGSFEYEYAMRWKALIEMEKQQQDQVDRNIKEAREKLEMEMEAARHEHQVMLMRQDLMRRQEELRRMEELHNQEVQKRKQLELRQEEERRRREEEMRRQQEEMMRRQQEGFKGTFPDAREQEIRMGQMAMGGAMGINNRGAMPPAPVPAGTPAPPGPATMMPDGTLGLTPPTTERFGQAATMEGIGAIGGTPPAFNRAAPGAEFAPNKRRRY
# UniProt Q9Y266: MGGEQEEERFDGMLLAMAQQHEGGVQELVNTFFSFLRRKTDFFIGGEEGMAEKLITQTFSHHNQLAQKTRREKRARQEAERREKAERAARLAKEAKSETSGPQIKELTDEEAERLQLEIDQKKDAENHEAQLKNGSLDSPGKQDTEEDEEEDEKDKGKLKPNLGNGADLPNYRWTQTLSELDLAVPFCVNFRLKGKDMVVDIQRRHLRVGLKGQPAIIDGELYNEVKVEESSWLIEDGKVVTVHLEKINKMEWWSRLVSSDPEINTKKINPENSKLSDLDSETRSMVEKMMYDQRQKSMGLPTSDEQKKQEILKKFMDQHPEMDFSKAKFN
# UniProt Q13232: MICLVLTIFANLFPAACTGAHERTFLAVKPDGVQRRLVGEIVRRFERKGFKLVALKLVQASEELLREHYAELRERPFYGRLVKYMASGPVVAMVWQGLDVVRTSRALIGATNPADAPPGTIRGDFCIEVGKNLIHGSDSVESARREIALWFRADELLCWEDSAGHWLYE
# UniProt O75607: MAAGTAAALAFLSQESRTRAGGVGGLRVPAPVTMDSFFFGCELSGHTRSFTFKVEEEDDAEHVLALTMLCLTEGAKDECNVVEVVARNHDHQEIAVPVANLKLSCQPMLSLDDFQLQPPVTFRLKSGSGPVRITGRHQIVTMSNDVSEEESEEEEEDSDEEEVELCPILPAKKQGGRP
# UniProt Q9NZJ9: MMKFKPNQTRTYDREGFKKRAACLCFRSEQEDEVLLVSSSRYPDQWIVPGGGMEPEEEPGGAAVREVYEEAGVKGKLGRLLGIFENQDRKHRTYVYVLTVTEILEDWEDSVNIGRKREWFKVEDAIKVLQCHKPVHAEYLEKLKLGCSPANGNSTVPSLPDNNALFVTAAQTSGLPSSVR
# UniProt Q8TCD5: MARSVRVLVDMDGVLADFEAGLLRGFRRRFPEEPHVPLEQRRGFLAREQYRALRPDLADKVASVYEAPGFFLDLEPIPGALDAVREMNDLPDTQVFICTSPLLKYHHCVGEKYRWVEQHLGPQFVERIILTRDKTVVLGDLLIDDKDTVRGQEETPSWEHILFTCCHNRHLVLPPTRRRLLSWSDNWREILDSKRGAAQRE
# UniProt P16083: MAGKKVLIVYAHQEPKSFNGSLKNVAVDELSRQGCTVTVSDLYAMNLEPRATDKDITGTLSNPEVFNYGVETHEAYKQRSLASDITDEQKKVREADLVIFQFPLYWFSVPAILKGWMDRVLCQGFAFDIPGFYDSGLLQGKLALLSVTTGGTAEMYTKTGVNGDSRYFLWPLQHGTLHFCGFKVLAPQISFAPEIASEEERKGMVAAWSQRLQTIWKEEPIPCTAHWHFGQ
# UniProt A8MXV4: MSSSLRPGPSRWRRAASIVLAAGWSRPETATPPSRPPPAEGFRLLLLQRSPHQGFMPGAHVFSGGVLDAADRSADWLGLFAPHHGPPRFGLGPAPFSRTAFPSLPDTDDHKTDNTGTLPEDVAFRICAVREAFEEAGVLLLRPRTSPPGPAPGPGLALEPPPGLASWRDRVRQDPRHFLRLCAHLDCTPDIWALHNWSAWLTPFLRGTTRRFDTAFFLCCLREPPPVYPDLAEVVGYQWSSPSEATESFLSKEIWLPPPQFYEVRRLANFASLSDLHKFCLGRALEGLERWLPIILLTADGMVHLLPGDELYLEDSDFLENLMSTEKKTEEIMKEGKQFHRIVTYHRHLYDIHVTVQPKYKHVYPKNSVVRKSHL
# UniProt Q9H8H0: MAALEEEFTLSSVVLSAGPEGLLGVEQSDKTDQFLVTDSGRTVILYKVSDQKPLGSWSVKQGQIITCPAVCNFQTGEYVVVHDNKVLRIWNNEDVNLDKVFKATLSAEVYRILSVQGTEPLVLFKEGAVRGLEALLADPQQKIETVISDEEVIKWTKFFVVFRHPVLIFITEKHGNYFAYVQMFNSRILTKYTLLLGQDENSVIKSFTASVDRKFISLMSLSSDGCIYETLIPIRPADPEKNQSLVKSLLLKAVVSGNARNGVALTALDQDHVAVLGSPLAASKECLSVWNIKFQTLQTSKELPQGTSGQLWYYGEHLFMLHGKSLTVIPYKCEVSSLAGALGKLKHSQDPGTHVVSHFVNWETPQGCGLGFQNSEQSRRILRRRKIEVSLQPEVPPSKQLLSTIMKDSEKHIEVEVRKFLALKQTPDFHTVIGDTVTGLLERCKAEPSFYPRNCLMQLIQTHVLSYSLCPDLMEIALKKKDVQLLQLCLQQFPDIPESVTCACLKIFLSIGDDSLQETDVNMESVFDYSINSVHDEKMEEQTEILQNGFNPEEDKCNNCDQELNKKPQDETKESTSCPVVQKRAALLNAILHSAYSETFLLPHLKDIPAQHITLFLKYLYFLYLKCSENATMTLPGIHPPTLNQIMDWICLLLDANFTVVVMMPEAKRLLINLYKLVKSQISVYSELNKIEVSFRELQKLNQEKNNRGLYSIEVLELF
# UniProt Q8WVJ2: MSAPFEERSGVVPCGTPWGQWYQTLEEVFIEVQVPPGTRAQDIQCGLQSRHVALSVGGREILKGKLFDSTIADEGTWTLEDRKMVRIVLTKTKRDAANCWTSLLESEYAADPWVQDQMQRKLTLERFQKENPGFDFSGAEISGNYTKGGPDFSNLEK
# UniProt Q8WTT2: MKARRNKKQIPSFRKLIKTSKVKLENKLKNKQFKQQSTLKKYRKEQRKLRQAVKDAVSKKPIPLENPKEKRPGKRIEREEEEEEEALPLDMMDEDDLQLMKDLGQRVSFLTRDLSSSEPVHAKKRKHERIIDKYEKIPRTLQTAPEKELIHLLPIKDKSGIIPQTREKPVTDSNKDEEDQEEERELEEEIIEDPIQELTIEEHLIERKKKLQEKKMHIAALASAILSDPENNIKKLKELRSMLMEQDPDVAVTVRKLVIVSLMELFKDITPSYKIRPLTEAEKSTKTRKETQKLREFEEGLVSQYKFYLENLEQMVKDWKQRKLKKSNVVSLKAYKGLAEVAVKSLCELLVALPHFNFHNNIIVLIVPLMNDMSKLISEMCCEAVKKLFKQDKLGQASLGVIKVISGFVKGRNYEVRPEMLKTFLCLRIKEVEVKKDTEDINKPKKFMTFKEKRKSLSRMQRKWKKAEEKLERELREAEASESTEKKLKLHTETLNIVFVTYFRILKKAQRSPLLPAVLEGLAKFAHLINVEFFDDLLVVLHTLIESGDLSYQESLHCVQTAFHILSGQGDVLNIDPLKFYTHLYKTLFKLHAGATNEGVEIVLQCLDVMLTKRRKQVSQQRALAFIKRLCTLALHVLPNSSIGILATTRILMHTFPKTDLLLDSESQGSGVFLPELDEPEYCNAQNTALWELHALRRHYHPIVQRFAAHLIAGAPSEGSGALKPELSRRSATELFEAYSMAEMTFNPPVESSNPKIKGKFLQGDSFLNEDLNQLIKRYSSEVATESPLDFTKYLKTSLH
# UniProt O43809, whole entry, looked up: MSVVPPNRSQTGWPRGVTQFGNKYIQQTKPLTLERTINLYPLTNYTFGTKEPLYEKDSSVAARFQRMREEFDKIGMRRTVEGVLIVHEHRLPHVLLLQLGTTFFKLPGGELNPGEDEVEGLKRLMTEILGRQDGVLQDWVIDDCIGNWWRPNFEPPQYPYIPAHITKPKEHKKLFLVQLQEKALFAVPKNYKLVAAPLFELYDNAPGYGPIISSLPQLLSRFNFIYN
# UniProt Q92636: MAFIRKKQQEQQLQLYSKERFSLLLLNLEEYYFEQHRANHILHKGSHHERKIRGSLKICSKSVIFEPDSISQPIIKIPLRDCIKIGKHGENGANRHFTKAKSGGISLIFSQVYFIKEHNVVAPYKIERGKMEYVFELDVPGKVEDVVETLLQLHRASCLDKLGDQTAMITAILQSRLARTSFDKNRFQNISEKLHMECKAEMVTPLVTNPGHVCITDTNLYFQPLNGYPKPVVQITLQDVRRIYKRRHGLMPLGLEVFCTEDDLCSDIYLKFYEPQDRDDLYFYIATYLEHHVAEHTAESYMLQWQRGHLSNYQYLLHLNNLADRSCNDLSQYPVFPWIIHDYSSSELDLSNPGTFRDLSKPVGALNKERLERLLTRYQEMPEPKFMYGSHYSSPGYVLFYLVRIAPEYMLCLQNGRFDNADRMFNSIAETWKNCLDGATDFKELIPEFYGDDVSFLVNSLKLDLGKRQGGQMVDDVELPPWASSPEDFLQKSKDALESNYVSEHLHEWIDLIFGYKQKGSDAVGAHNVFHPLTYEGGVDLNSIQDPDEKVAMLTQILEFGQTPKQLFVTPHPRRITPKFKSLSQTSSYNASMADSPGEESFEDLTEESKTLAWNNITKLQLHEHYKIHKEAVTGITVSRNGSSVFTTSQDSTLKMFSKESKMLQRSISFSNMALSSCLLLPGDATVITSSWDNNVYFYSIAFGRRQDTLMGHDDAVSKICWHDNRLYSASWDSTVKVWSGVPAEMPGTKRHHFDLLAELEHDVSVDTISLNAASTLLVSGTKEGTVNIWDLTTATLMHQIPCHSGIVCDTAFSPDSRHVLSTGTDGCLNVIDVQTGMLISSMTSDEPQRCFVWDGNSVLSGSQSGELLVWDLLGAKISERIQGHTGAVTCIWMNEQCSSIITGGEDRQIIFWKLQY
# UniProt P50583: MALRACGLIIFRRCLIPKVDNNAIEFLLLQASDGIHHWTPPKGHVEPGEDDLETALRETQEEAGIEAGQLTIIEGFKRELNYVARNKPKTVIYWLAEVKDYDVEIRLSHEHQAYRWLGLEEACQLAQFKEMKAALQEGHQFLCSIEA
# UniProt Q96IY1: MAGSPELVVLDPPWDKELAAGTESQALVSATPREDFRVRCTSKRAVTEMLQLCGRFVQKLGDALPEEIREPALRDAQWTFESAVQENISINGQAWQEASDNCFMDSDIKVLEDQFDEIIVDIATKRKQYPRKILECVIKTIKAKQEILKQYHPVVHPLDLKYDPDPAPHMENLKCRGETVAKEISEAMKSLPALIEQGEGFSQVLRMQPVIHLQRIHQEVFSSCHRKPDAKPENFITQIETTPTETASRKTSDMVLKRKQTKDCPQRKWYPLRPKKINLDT
# UniProt P30419: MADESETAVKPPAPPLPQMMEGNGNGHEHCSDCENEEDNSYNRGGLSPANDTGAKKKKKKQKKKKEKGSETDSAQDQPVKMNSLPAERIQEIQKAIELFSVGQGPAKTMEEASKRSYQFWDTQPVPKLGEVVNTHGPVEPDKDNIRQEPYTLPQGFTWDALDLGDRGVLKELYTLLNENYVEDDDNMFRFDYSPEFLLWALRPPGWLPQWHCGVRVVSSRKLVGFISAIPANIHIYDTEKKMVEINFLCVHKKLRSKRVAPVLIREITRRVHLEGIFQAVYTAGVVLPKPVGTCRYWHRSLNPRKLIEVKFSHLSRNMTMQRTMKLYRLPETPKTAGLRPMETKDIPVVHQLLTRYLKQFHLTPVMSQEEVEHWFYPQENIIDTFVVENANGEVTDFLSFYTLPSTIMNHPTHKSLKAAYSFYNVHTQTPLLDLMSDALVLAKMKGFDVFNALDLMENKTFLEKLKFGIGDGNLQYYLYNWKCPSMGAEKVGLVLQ
# UniProt Q9Y3C1: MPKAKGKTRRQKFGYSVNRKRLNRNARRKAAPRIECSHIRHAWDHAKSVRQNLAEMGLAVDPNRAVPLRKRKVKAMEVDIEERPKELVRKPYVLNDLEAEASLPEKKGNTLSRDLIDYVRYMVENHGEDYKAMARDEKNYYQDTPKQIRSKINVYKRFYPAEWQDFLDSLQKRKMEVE
# This is one part of the list.
# What was measured:
# Test in all cases: log2 fold change, soluble protein after heating vs DMSO (PISA); higher = thermal stabilisation; K562 lysate, 10 uM; active = over 0.2 and 3.5 SD of the protein, either way, in both replicates (recomputed)
# [1] = compound: Cc1cn(-c2cc(NC(=O)c3ccc(C)c(Nc4nccc(-c5cccnc5)n4)c3)cc(C(F)(F)F)c2)cn1 [nilotinib]
# Outline: (§1)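 Thermal stability, expressed as log-two fold change relative to solvent controls, is given from duplicates. Crude K562 extract in PBS pH 7.4 with 1 mM MgCl2, at 1 mg/mL protein, was treated with 10 μM compound for 30 min and heated in aliquots for 3 min across 48°C-58°C. After pooling, adjustment to 0.5% NP-40 at 4°C and centrifugation at 21,000xg for 90 min, supernatant protein was measured by TMTpro 16plex LC-MS/MS with channel sums equalised.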
# [2] = compound: Cc1nc(Nc2n[nH]c3c2CN(C(=O)N[C@H](CN(C)C)c2ccccc2)C3(C)C)c2sccc2n1
# Outline: as §1
# [3] = compound: Cc1nc(Nc2ncc(C(=O)Nc3c(C)cccc3Cl)s2)cc(N2CCN(CCO)CC2)n1 [dasatinib]
# Outline: as §1
# [4] = compound: Cc1ncc(-c2ccnc(Nc3ccc(S(C)(=O)=O)cc3)n2)n1C(C)C
# Outline: as §1
# [5] = compound: Cn1cc(-c2ccc3c(c2)CCN3C(=O)Cc2cccc(C(F)(F)F)c2)c2c(N)ncnc21
# Outline: as §1
# [6] = compound: Cn1cc(CNCC2CCN(c3ncc(C(=O)NO)cn3)CC2)c2ccccc21 [quisinostat]
# Outline: as §1
# [7] = compound: Cn1cncc1[C@@](N)(c1ccc(Cl)cc1)c1ccc2c(c1)c(-c1cccc(Cl)c1)cc(=O)n2C [tipifarnib]
# Outline: as §1
# [8] = compound: NC(=O)Nc1cc(-c2cccc(F)c2)sc1C(=O)N[C@H]1CCCNC1
# Outline: as §1
# [9] = compound: NC(=O)c1cnc(N[C@@H]2CCCC[C@@H]2N)nc1Nc1cccc(-n2nccn2)c1
# Outline: as §1
# [10] = compound: NC1(c2ccc(-c3nc4ccn5c(=O)[nH]nc5c4cc3-c3ccccc3)cc2)CCC1
# Outline: as §1
# [11] = compound: NCC(=O)Nc1ccc(-n2nc(C(F)(F)F)cc2-c2ccc3c(ccc4ccccc43)c2)cc1
# Outline: as §1
# [12] = compound: O=C(CCCCCCC(=O)Nc1ccccc1)NO [vorinostat]
# Outline: as §1
# [13] = compound: O=C(O)c1ccc2c(c1)nc(Nc1cccc(Cl)c1)c1ccncc12 [silmitasertib]
# Outline: as §1
# [14] = compound: O=C1NC(=O)C(c2cnc3ccccn23)=C1c1cn2c3c(cc(F)cc13)CN(C(=O)N1CCCCC1)CC2
# Outline: as §1
# [15] = compound: c1cn2cc(-c3ccc4cn[nH]c4c3)nc(Nc3ccc(N4CCOCC4)cc3)c2n1 [entospletinib]
# Outline: as §1
Target,log2 fold change [1],log2 fold change [2],log2 fold change [3],log2 fold change [4],log2 fold change [5],log2 fold change [6],log2 fold change [7],log2 fold change [8],log2 fold change [9],log2 fold change [10],log2 fold change [11],log2 fold change [12],log2 fold change [13],log2 fold change [14],log2 fold change [15]
NUDT9 (UniProt Q9BW91),inactive: -0.036,inactive: -0.01,inactive: 0.017,inactive: 0.009,inactive: 0.03,inactive: -0.007,inactive: -0.01,inactive: -0.016,inactive: -0.018,inactive: 0.023,inactive: 0.028,inactive: -0.023,inactive: -0.023,inactive: 0.026,inactive: 0.004
NONO (UniProt Q15233),inactive: -0.007,inactive: -0.011,inactive: -0.047,inactive: 0.007,inactive: 0.012,inactive: -0.004,inactive: -0.007,inactive: 0.022,inactive: 0.008,inactive: -0.013,inactive: 0.013,active: -0.355,inactive: 0.027,inactive: -0.007,inactive: 0
NUDC (UniProt Q9Y266),inactive: -0.012,inactive: 0.008,inactive: 0.011,inactive: 0.005,inactive: 0.008,inactive: 0.072,inactive: 0.041,inactive: -0.018,inactive: -0.008,inactive: 0.002,inactive: 0.007,inactive: 0.052,inactive: -0.007,inactive: -0.025,inactive: -0.014
NME3 (UniProt Q13232),inactive: 0.078,inactive: 0.006,inactive: 0.108,inactive: -0.01,inactive: 0.051,inactive: 0,inactive: -0.008,inactive: 0.009,inactive: -0.006,inactive: -0.038,inactive: -0.014,inactive: -0.011,inactive: 0.031,inactive: 0.011,inactive: -0.086
NPM3 (UniProt O75607),inactive: -0.039,inactive: -0.012,inactive: 0.065,inactive: 0.049,inactive: 0.024,inactive: -0.024,inactive: -0.027,inactive: 0.019,inactive: 0.03,inactive: -0.029,inactive: -0.049,inactive: -0.012,inactive: 0.021,inactive: -0.019,inactive: -0.037
NNT (UniProt Q13423),inactive: -0.017,inactive: 0.001,inactive: 0.003,inactive: 0.002,inactive: 0.002,inactive: 0.01,inactive: 0.009,inactive: -0.021,inactive: 0.002,inactive: 0.001,inactive: 0.02,inactive: 0.023,inactive: -0.001,inactive: -0.036,inactive: -0.01
NUDT4 isoform 2 (UniProt Q9NZJ9),inactive: -0.004,inactive: 0.012,inactive: 0.13,inactive: -0.002,inactive: 0.038,inactive: -0.012,inactive: -0.044,inactive: 0.016,inactive: -0.042,inactive: 0.043,inactive: 0.057,active: -0.336,inactive: -0.034,inactive: 0.018,inactive: -0.023
NT5C (UniProt Q8TCD5),inactive: 0.015,inactive: -0.048,inactive: -0.015,inactive: -0.16,inactive: -0.025,inactive: -0.004,inactive: 0.029,inactive: -0.019,inactive: 0.015,inactive: 0.012,inactive: 0.011,inactive: 0.103,inactive: -0.02,inactive: -0.06,inactive: 0.025
NQO2 (UniProt P16083),inactive: 0.01,inactive: 0,inactive: 0.048,inactive: 0.006,inactive: -0.01,inactive: 0.064,inactive: 0.014,inactive: -0.037,inactive: -0.012,inactive: -0.001,inactive: -0.03,inactive: 0.113,inactive: 0.016,inactive: -0.053,inactive: 0.016
NUDT19 (UniProt A8MXV4),inactive: -0.003,inactive: -0.029,inactive: -0.025,inactive: -0.028,inactive: 0.005,inactive: -0.016,inactive: 0.022,inactive: -0.012,inactive: 0,inactive: 0.015,inactive: 0.035,inactive: 0.119,inactive: -0.001,inactive: 0.02,inactive: 0.04
NUDT4 (UniProt Q9NZJ9),inactive: 0.115,inactive: -0.03,inactive: 0.038,inactive: -0.002,inactive: 0.006,inactive: 0.129,inactive: 0.11,inactive: 0.018,inactive: -0.059,inactive: 0.022,inactive: -0.144,inactive: -0.162,inactive: 0.028,inactive: 0.03,inactive: -0.01
NOL11 (UniProt Q9H8H0),inactive: 0.002,inactive: -0.01,inactive: -0.005,inactive: -0.004,inactive: 0.019,inactive: -0.07,inactive: 0.023,inactive: -0.002,inactive: 0.146,inactive: 0.238,inactive: 0.01,inactive: -0.171,inactive: 0.191,inactive: -0.005,inactive: 0.013
NUDCD2 (UniProt Q8WVJ2),inactive: 0.011,inactive: 0.026,inactive: 0.02,inactive: -0.003,inactive: -0.033,inactive: 0.036,inactive: 0.028,inactive: 0.004,inactive: -0.064,inactive: -0.09,inactive: 0.019,inactive: 0.139,inactive: -0.041,inactive: 0.038,inactive: -0.029
NT5C3A (UniProt Q9H0P0),inactive: -0.038,inactive: 0.05,inactive: -0.01,inactive: 0,inactive: -0.021,inactive: 0.045,inactive: 0.01,inactive: 0.018,inactive: 0.07,inactive: 0.018,inactive: -0.03,inactive: -0.054,inactive: 0.026,inactive: 0.029,inactive: 0.032
NOC3L (UniProt Q8WTT2),inactive: -0.002,inactive: -0.09,inactive: -0.022,inactive: -0.024,inactive: 0.016,inactive: -0.094,inactive: 0.107,inactive: 0.034,inactive: 0.027,inactive: -0.048,inactive: 0.012,inactive: -0.036,inactive: -0.029,inactive: 0.02,inactive: 0.039
NUDT21 (UniProt O43809),inactive: 0,inactive: -0.043,inactive: -0.012,inactive: -0.003,inactive: -0.026,inactive: 0.043,inactive: 0.038,inactive: -0.015,inactive: 0.013,inactive: 0.002,inactive: -0.024,inactive: 0.137,inactive: -0.039,inactive: -0.038,inactive: -0.007
NSMAF (UniProt Q92636),inactive: -0.003,inactive: -0.021,inactive: -0.059,inactive: 0.006,inactive: -0.061,inactive: -0.138,inactive: -0.003,inactive: 0.027,inactive: -0.02,inactive: 0.01,inactive: 0.019,inactive: 0.054,inactive: 0.022,inactive: -0.053,inactive: -0.006
NUDT2 (UniProt P50583),inactive: 0.017,inactive: 0.014,inactive: -0.053,inactive: 0.046,inactive: 0.013,inactive: -0.026,inactive: 0.048,inactive: -0.012,inactive: 0.007,inactive: 0.011,inactive: -0.04,inactive: -0.017,inactive: 0.021,inactive: 0.038,inactive: 0.019
NSL1 (UniProt Q96IY1),inactive: -0.018,inactive: 0.005,inactive: -0.01,inactive: -0.014,inactive: 0,inactive: -0.009,inactive: 0.024,inactive: -0.003,inactive: 0.01,inactive: -0.007,inactive: -0.012,active: -0.528,inactive: -0.022,inactive: -0.005,inactive: 0.03
NMT1 (UniProt P30419),inactive: -0.037,inactive: 0.044,inactive: 0.058,inactive: -0.016,inactive: -0.022,inactive: -0.065,inactive: 0.001,inactive: 0.007,inactive: -0.005,inactive: -0.057,active: -0.35,inactive: 0.028,inactive: -0.03,inactive: -0.036,inactive: 0.034
NOP16 (UniProt Q9Y3C1),inactive: -0.009,inactive: 0.014,inactive: 0.019,inactive: 0.026,inactive: -0.041,inactive: 0.003,inactive: 0.009,inactive: 0.011,inactive: 0.003,inactive: 0.04,inactive: 0.008,inactive: -0.05,inactive: -0.025,inactive: -0.054,inactive: -0.013

# A different layout for part of the listing above.
Target | log2 fold change [1] | log2 fold change [2] | log2 fold change [3] | log2 fold change [4] | log2 fold change [5] | log2 fold change [6] | log2 fold change [7] | log2 fold change [8] | log2 fold change [9] | log2 fold change [10] | log2 fold change [11] | log2 fold change [12] | log2 fold change [13] | log2 fold change [14] | log2 fold change [15]
NUDT19 (UniProt A8MXV4) | inactive: -0.003 | inactive: -0.029 | inactive: -0.025 | inactive: -0.028 | inactive: 0.005 | inactive: -0.016 | inactive: 0.022 | inactive: -0.012 | inactive: 0 | inactive: 0.015 | inactive: 0.035 | inactive: 0.119 | inactive: -0.001 | inactive: 0.02 | inactive: 0.04
NOP16 (UniProt Q9Y3C1) | inactive: -0.009 | inactive: 0.014 | inactive: 0.019 | inactive: 0.026 | inactive: -0.041 | inactive: 0.003 | inactive: 0.009 | inactive: 0.011 | inactive: 0.003 | inactive: 0.04 | inactive: 0.008 | inactive: -0.05 | inactive: -0.025 | inactive: -0.054 | inactive: -0.013
